Results from patent publication US6946130 (GlaxoSmithKline, dated 2005).
These are yes or no findings as the source states them, for the method shown. Some results given as binding are weak or reduced against the parent protein; the word gives no strength. Where a sequence is shown, tags or fusion partners need not be part of it.

By UniProt entry, the sequences of proteins in these tests, tags left out. Residues count along the entry.
UniProt P05113, residues 20-134: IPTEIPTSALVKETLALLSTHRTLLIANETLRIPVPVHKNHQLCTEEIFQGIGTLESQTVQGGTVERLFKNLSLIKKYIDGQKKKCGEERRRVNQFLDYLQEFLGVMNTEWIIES

Target: human interleukin 5 (recombinant human IL-5, expressed in Drosophila Schneider 2 cells) (human) (UniProt P05113)
Experiment: colony lift assay with 125I-IL-5

B1: recombinant Fab containing the 2B6 heavy and light chains (Fd fused to hexa-His) (Fab)
heavy (part 1 of 2): QVQLKESGPGLVAPSQSLSITCTVSGFSLTSYSVHWVRQPPGKGLEWLGVIWASGGTDYNSALMSRLSISKDNSKSQVFLKLNSLQTDDTAMYYCARDPPSSLLRLDYWGQGTTLTVSS
heavy (part 2 of 2): HHHHHH
light: DIVMTQSPSSLSVSAGEKVTMSCKSSQSLLNSGNQKNYLAWYQQKPGQPPKLLIYGASTRESGVPDRFTGSGSGTDFTLSISSVQAEDLAVYYCQNVHSFPFTFGSGTELEIK
notes: Expressed in E. coli from pMKFabGene3H after removal of gene III; also called Fab fragment from 2B6; 2B6 Fab; not shown: murine CH1 (rest of the 2B6 Fd); murine kappa constant region
For B1, the binding was “binds”.
